Assay [1] deals with Ca^2+/CaM-dependent kinase II β (CaMKIIβ) holoenzyme (rodent) (UniProt P08413). Put plainly: negative-stain single-particle EM; same specimens; focused 2D classification of the kinase domains with the hub domain masked away (13.5 nm inner mask); kinase domain dimers within the holoenzyme; both purified.
The target is the same in assay [2]. The assay is described as follows: co-sedimentation; self-association assay as above (0.5 μM CaMKII, Ca^2+/CaM, ADP, pH 6.4); 100,000 × g pellet, immunoblot; clustering of holoenzymes; both purified. In general terms: Immunoblotting shows a protein as a band on a membrane.

Amino acid sequences for entries named in this document (tags omitted).
UniProt P08413: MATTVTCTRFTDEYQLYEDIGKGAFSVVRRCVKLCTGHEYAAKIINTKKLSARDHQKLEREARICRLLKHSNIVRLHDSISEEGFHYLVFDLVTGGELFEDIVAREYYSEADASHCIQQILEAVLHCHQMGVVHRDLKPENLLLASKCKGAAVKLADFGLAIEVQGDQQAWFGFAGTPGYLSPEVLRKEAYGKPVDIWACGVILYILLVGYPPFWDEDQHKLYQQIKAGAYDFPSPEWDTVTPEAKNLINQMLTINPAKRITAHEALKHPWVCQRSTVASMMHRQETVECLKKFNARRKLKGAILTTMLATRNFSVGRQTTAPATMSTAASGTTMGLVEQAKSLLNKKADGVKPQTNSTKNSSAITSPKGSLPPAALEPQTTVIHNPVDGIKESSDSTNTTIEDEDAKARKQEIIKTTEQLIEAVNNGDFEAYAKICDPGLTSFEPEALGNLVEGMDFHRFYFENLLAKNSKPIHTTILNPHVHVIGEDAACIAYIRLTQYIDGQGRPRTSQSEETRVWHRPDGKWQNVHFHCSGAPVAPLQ

Results are given in words; binding and its absence hold for the method and conditions named. Some binding calls cover weakened binding; strength is not graded here.

With “Ca^2+/CaM-dependent kinase II β (CaMKIIβ) holoenzyme (from UniProt P08413 1-542)”, the binding entry in assay [1] and in assay [2] was “binds” in each case.
